Data from the supplement of paper PMC12889115.
The other results are listed elsewhere or left out. Values are raw readings; no control value is given beside them.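 In the initial screen, polymyxin B was used at a concentration that permeabilizes Salmonella's outer membrane but not its inner membrane. Maximum growth was set by DMSO wells with or without polymyxin B. Since plates varied, data were ranked per plate, and compounds giving the lowest OD600 advanced as hits.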

Tested on: Salmonella enterica serovar Typhimurium SL1344
Test: bacterial growth OD600 after 18 h with compound and polymyxin B; higher = more bacterial growth (less inhibition)
Conditions: 50 µM, Mueller-Hinton broth

SMILES	bacterial growth OD600 (polymyxin B 1 µg/mL)	bacterial growth OD600 (polymyxin B 0.75 µg/mL)
O=C(c1ccccc1)N1CCCC(N2CCN(c3cccc(C(F)(F)F)c3)CC2)C1 (stereo unspecified)	0.842	–
Cc1cccc(C(=O)NCc2cccnc2N2CCCC(O)C2)n1 (stereo unspecified)	–	0.823
Cc1cc(C)n(CCC(=O)NCc2cccnc2Oc2ccc(F)cc2F)n1	0.978	–
CO[C@H]1[C@H](NC(=O)Cc2cccs2)c2ccccc2C12CCN(Cc1ccccc1O)CC2	–	0.827
CCc1noc(C)c1C(=O)N(C)C1CCCN(CCCc2ccccc2)C1 (stereo unspecified)	1.14	–
Cc1c[nH]c(CNC(=O)c2cc(Cn3ccc4ccccc43)[nH]n2)n1	0.861	–
CCN1CCN(C(=O)c2ccc(N3CCC(NCc4nonc4C)CC3)cc2)CC1	–	0.827
CC(C)NCC1(O)CCCN(CC2CCCCC2)C1=O (stereo unspecified)	–	0.957
CCN1CCCC1CNC(=O)CCC1CCN(C2CCN(c3ccccc3)CC2)CC1 (stereo unspecified)	0.857	–
O=C(c1ccc(NCCC2CCCC2)nc1)N1CCCN(c2ncccn2)CC1	–	0.562
Cn1nccc1C(=O)N1CCCC(CCc2cccc(F)c2)C1 (stereo unspecified)	–	0.587
Cc1ccc(CC2(CCC(=O)N(C)Cc3csc(-c4cccs4)n3)CCC(=O)N2)cc1 (stereo unspecified)	–	0.889
Cc1nc(CN(C)C(=O)c2coc(COc3ccc(F)cc3Cl)n2)cs1	0.797	–
CN(Cc1nccs1)Cc1cn(Cc2ccccc2)nc1-c1ccc2c(c1)OCO2	0.013	–
O=C(NCc1ccon1)c1csc2nc(-c3ccc(C(F)(F)F)cc3)cn12	0.887	–
COCc1ccc(C(=O)NCc2c(C)ncc3c2CCN(C(=O)Cc2c(F)ccc(F)c2F)C3)o1	–	0.791

Two of the compounds above, in CSV form:
SMILES,bacterial growth OD600 (polymyxin B 1 µg/mL),bacterial growth OD600 (polymyxin B 0.75 µg/mL)
O=C(NCc1ccon1)c1csc2nc(-c3ccc(C(F)(F)F)cc3)cn12,0.887,–
COCc1ccc(C(=O)NCc2c(C)ncc3c2CCN(C(=O)Cc2c(F)ccc(F)c2F)C3)o1,–,0.791

Additional records follow.

SMILES	bacterial growth OD600 (polymyxin B 1 µg/mL)	bacterial growth OD600 (polymyxin B 0.75 µg/mL)
Cc1cc(F)ccc1NC(=O)CCC1CCCN(C(=O)CCCN2CCCC2=O)C1 (stereo unspecified)	1.09	–
COc1ccc(NC(=O)CCC2CCCN(Cc3ccc(F)c(OC)c3)C2)c(C)c1 (stereo unspecified)	0.579	–
Cc1c(C(C)NCc2ccccc2)cnn1-c1ccc(F)cc1F (stereo unspecified)	–	0.798
CCOC(=O)C1(Cc2ccc(F)cc2F)CCCN(C(=O)Cn2nc(C)cc2C)C1 (stereo unspecified)	0.812	–
c1ccc(CCC2CCCCN2Cc2nc(-c3cccs3)no2)cc1 (stereo unspecified)	0.012	–
COCCc1ncc(CN2CCCC(C(=O)Nc3cccc(-n4cccn4)c3)C2)cn1 (stereo unspecified)	0.98	–
CCC1CN(CC(=O)N2CCC(C(C)N3CCOCC3)CC2)Cc2cc(OC)ccc2O1 (stereo unspecified)	–	0.814
Cc1cc(C)n(CCC(=O)N2CCOc3c(cc(-c4csc5ccccc45)cc3OCCc3ccccn3)C2)n1	–	0.353
Cc1cc(C(=O)N2CCOc3ccc(CN4CCC(OCc5ccccc5)CC4)cc3C2)nc(C)n1	–	0.936
CCCc1cc(C(=O)N(CCOC)CC2CCN(Cc3ccccc3OC)CC2)n(C)n1	0.815	–
CCOC(=O)N1CCN(C(=O)c2cc(NC(=O)C3CCCCC3)cc3ncn(CCOC)c23)CC1	–	0.939
Cc1cc(C(=O)N2CCC3(CCCN(Cc4ccc(F)cc4)C3=O)C2)c(C)o1 (stereo unspecified)	0.784	–
CC(=O)c1ccc(S(=O)(=O)NCc2cccnc2N(C)C)cc1	0.814	–
CCOC(=O)N1CCC(NC(=O)c2cc(NC(=O)CC)cc3nc(Cc4ccccc4)n(C)c23)CC1	–	0.879
CCn1cc(CNC(=O)c2ccc(OC3CCN(C)CC3)c(OC)c2)cn1	0.998	–
